This is an account of results in PubChem BioAssay AID248 (DTP/NCI, 2004).

The list does not hold the whole screen: it is rich in T/C values a quarter to a half above the control, in often repeated tests (any T/C) and in doses without a T/C. Further doses and runs are listed elsewhere. T/C: endpoint of the treated group in % of that of the vehicle group. Some doses have a count of surviving animals in place of a T/C: the source files T/C as zero there, which appears to mark a toxic dose or a test without result, not a measured value. Some survivor counts are full or nearly so, which does not show that the dose was tolerated: the source hardly ever lists a survival T/C far under the control, and the zero likely stands for such cases as well. Counts of survivors are from the toxicity check (mostly the fifth day) where no day follows; animals may have died later. Schedules are NCI's codes, read here as Q, the interval in days (D) or hours (H), X, the number of doses. Some entries hold several experiments; the values are given in rising order.

This test relates to L1210 leukemia ip in BDF1 mice, survival T/C. The experiment in a line: NCI In Vivo Anticancer Drug Screen. Data for tumor model L1210 Leukemia (intraperitoneal) in B6D2F1 (BDF1) mice. The following applies: T/C endpoint: mean survival time, higher T/C = longer survival.
[1] abbreviates: dose: 400.0 mg/kg/injection, schedule: Q01DX001 (ip), vehicle: carboxymethylcellulose (CMC).
Setting [2] is: dose: 50.0 mg/kg/injection, schedule: Q01DX009 (ip), vehicle: Klucel (hydroxypropylcellulose) (HPC).
Setting [3] is: dose: 200.0 mg/kg/injection, schedule: Q01DX001 (ip), vehicle: saline.
Setting [4] is: dose: 400.0 mg/kg/injection, schedule: Q01DX001 (ip), vehicle: saline.
[5] abbreviates: dose: 100.0 mg/kg/injection, schedule: Q01DX009 (ip), vehicle: saline.
Setting [6] is: dose: 400.0 mg/kg/injection, schedule: Q04DX002 (ip), vehicle: saline with Tween-80.

Turning to `CCCNC(C)(C)C(SSSC(c1cccs1)C(C)(C)NCCC)c1cccs1` (stereo not drawn), the survivor count is 6 of 6 (dose: 100.0 mg/kg/injection, schedule: Q04DX003 (ip), vehicle: Klucel (hydroxypropylcellulose) (HPC)); 6 of 6 (dose: 115.0 mg/kg/injection, schedule: Q01DX009 (ip), vehicle: saline); 6 of 6 (dose: 200.0 mg/kg/injection, schedule: Q04DX003 (ip), vehicle: Klucel (hydroxypropylcellulose) (HPC)); 2 of 6 (dose: 400.0 mg/kg/injection, schedule: Q04DX003 (ip), vehicle: Klucel (hydroxypropylcellulose) (HPC)).

Regarding `O=S1(=O)C=CCC1`, the survivor count by setting is: under setting [1], 2 of 4; (dose: 400.0 mg/kg/injection, schedule: Q01DX009 (ip), vehicle: saline) 1 of 6.

In the case of `CN1CCCCC1C[CH2][Sn]([c]1ccccc1)([c]1ccccc1)[c]1ccccc1` (stereo not drawn), the survivor count reads like this: (dose: 12.5 mg/kg/injection, schedule: Q01DX009 (ip), vehicle: Klucel (hydroxypropylcellulose) (HPC)) 1 of 1; (dose: 25.0 mg/kg/injection, schedule: Q01DX009 (ip), vehicle: Klucel (hydroxypropylcellulose) (HPC)) 3 of 3; under setting [2], 0 of 3; (dose: 50.0 mg/kg/injection, schedule: Q04DX002 (ip), vehicle: Klucel (hydroxypropylcellulose) (HPC)) 3 of 3; (dose: 100.0 mg/kg/injection, schedule: Q04DX002 (ip), vehicle: Klucel (hydroxypropylcellulose) (HPC)) 0 of 3; (dose: 200.0 mg/kg/injection, schedule: Q04DX002 (ip), vehicle: Klucel (hydroxypropylcellulose) (HPC)) 0 of 3. In addition, the survivor count (dose: 400.0 mg/kg/injection, schedule: Q04DX002 (ip), vehicle: Klucel (hydroxypropylcellulose) (HPC)) was 0 of 3.

Take `c1ccc2c(c1)ccc1ccc3cccc[n+]3c12`: the survivor count (dose: 50.0 mg/kg/injection, schedule: Q01DX001 (ip), vehicle: saline) is 0 of 6; the survivor count (dose: 100.0 mg/kg/injection, schedule: Q01DX001 (ip), vehicle: saline) is recorded as 0 of 6; the survivor count under setting [3] is listed as 0 of 6; the survivor count under setting [4] is on record as 0 of 6.

Turning to `OC(Nc1ccccn1)(C(F)(F)F)C(F)(F)F`, the survivor count is recorded as 0 of 4 under setting [3] and 0 of 4 under setting [4].

Consider `COc1ccc(Cl)cc1NC(=O)C(Cl)(Cl)Cl`, for which the survivor count (dose: 100.0 mg/kg/injection, schedule: Q01DX009 (ip), vehicle: saline with Tween-80) was 3 of 3; the survivor count (dose: 200.0 mg/kg/injection, schedule: Q01DX001 (ip), vehicle: saline with Tween-80) is recorded as 6 of 6; the survivor count (dose: 400.0 mg/kg/injection, schedule: Q01DX001 (ip), vehicle: saline with Tween-80) is on record as 6 of 6; the survivor count (dose: 400.0 mg/kg/injection, schedule: Q01DX009 (ip), vehicle: saline with Tween-80) was 3 of 3 and 6 of 6.

In the case of `O=C1C=C(Nc2ccc(O)cc2)c2ccccc2C1=O`, the survivor count is, setting by setting: (dose: 50.0 mg/kg/injection, schedule: Q01DX009 (ip), vehicle: saline) 4 of 6; under setting [5], 1 of 6; (dose: 200.0 mg/kg/injection, schedule: Q04DX003 (ip), vehicle: saline) 6 of 6.

Consider `COC(=O)c1ccccn1`, for which the survivor count under setting [6] is 0 of 3.

Turning to `O=NN(CCCl)C(=O)NC1CCC(NC(=O)N(CCCl)N=O)CC1` (stereo not drawn), the survivor count (dose: 337.0 mg/kg/injection, schedule: Q01DX001 (ip), vehicle: other) is reported as 9 of 9.

As for `C/C(Cc1cc(C)nc(N)n1)=N\Nc1ccccc1`, the survivor count was 3 of 3 under setting [2]; 3 of 3 (dose: 100.0 mg/kg/injection, schedule: Q01DX009 (ip), vehicle: Klucel (hydroxypropylcellulose) (HPC)); 3 of 3 (dose: 200.0 mg/kg/injection, schedule: Q01DX009 (ip), vehicle: Klucel (hydroxypropylcellulose) (HPC)).

Take `Cc1cc(NC(=O)Nc2cc([N+](=O)[O-])ccc2Cl)no1`: the survivor count is, setting by setting: (dose: 200.0 mg/kg/injection, schedule: Q01DX001 (ip), vehicle: Klucel (hydroxypropylcellulose) (HPC)) 6 of 6; (dose: 400.0 mg/kg/injection, schedule: Q01DX001 (ip), vehicle: Klucel (hydroxypropylcellulose) (HPC)) 5 of 6.

For the compound `NCCSc1ccccc1`, the survivor count is, setting by setting: (dose: 200.0 mg/kg/injection, schedule: Q04DX002 (ip), vehicle: saline with Tween-80) 0 of 3; under setting [6], 0 of 3.

As to `CCOC(=O)N(CCCCCCNC(c1ccccc1)S(=O)(=O)O)c1ccccc1` (stereo not drawn), the survivor count is given as 5 of 6 under setting [5]; 3 of 6 (dose: 200.0 mg/kg/injection, schedule: Q01DX001 (ip), vehicle: carboxymethylcellulose (CMC)); 1 of 4 under setting [3]; 0 of 6 (dose: 200.0 mg/kg/injection, schedule: Q01DX009 (ip), vehicle: saline); 0 of 6 (dose: 300.0 mg/kg/injection, schedule: Q01DX009 (ip), vehicle: saline); 0 of 6 under setting [1]. Moreover, the survivor count is, setting by setting: under setting [4], 0 of 4; (dose: 800.0 mg/kg/injection, schedule: Q01DX001 (ip), vehicle: saline) 0 of 4.
